Test results taken from patent CN113045662A.
These are yes or no findings as the source states them, for the method shown. Some results given as binding are weak or reduced against the parent protein; the word gives no strength.

The chains behind the UniProt entries cited, without tags or fusion partners. Residues count along the entry.
UniProt Q9NZQ7, residues 19-134: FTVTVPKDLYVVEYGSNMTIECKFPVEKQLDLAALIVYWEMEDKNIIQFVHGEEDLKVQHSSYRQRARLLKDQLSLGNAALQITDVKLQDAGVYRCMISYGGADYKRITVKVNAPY

Legend:
PD-L1-Ig-V [1] = biological target: PD-L1-Ig-V (UniProt Q9NZQ7); test: phage ELISA, antigens coated at 2.5 ug/ml, OD450; BSA as control antigen
PD-L1-Ig-V [2] = biological target: PD-L1-Ig-V (UniProt Q9NZQ7); test: checkerboard phage ELISA, antigen coated at 5 to 0.625 ug/ml, antibody at 8.3 nM to 5.312e-4 nM

binding (PD-L1-Ig-V [1]): binds | binding (PD-L1-Ig-V [2]): binds
B1: PD-L1-Ig-V-VHH 6-21 (VHH)
VHH: DVQLQASGGGLVQAGGSLRLSCAASRMIFSTFSIQDMGWYRQAPGKQRDLVALITSDGSTNYADSVKGRFTISRDNAKSTVYLQMNNLKPEDTAVYYCAATDNVSGGRLLLNIWWMRDMWYNYWGQGTLVTVSS
